For at least one compound, name, drawing or mass did not settle the structure.
Key:
flu = experiment: Working Example XVI: prophylaxis in child after flu exposure; type: in vivo, human; details: tetracycline 30 mg/kg daily in 3 divided portions, then Tamiflu 75 mg p.o. b.i.d. for 5 days
bird flu = test system: bird flu; design: species or system human; details: in vivo, po

Row | SMILES | clinical outcome after flu exposure (flu) | clinical outcome after bird flu exposure (bird flu)
1 | CN(C)[C@@H]1C(O)=C(C(N)=O)C(=O)[C@@]2(O)C(O)=C3C(=O)c4c(O)cccc4[C@@](C)(O)[C@H]3C[C@@H]12 [tetracycline] | mildly sick for 1 day | –
2 | CN(C)c1ccc(O)c2c1C[C@H]1C[C@H]3[C@H](N(C)C)C(O)=C(C(N)=O)C(=O)[C@@]3(O)C(O)=C1C2=O [minocycline] | – | does not develop respiratory distress and improves
